The results in this text go back to publication PMC5854669, “Zinc knuckle of TAF1 is a DNA binding module critical for TFIID promoter occupancy”.

The comparison behind a weaker result is the experiment's own reference, which may not be listed here. Tags and fusion partners may be left off the protein sequences shown.

The data set addresses T1, TAF1 ZnC charge mutant (ZnC_RK) R1295A,K1298A (Homo sapiens) (UniProt P21675).
T1 sequence (looked up): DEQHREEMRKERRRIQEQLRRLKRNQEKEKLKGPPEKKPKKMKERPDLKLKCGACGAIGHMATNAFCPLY
As to the kind of experiment: BLI. The note with it: BLI: 10 mM HEPES pH 7.9, 5 mM MgCl2, 100 mM NaCl, 10% glycerol, 0.1% ovalbumin, 0.2 mM dI:dC, 30 °C; recombinant protein; residues 1234-1303; protein details: His-GB1; label: 5'-biotin (BLI), 5'-32P (EMSA). For orientation: A gel shift assay detects complexes by their altered migration in electrophoresis.

Consider “GTCCTCAGTCGCGATCGAACACTCGAGCCGAGCAGACGTGCCTA (double strand) [IMD (Inr, MTE, DPE of super core promoter)]”, for which the binding result is “binds more weakly”.
